# Some of the results follow.
# Tested on: T1, CTL2-GFP (C. trachomatis L2/434/Bu, GFP-expressing)
# T1 construct: L2/434/Bu, GFP-expressing
# Parameters: species or system HeLa; Intracellular C. trachomatis growth in HeLa cells, bulk GFP fluorescence relative to DMSO
# Settings: bulk GFP, single well; 28.5 h, 10 µM; inhibitor
row,SMILES,% of control remaining
1,Cc1ccc(-c2ncc(OCCC(C)C)nc2N)cc1C [CBK145145],128.292%
2,COC(=O)CCCC(=O)n1ccn(-c2cccc(C(F)(F)F)c2)c1=O [CBK106580],180.848%
3,O=C(NCc1nc2ccccc2[nH]1)c1cc(-c2ccc(Cl)cc2)cnc1NCc1ccc2c(c1)OCO2 [CBK106377],85.6538%
4,CC1=CC(C)C2(COC(=O)Nc3ccccc3)COC(c3cccnc3)C1C2C (stereo not shown) [CBK262844],89.6828%
5,N/C(=N\OC(=O)c1ccccc1CCc1ccccc1)c1cccnc1 [CBK268188],44.8464%
6,O=C(O)CCCC(=O)N1CCN(C(=O)c2sc3cc(Cl)ccc3c2Cl)CC1 [CBK286973],113.643%
7,O=[N+]([O-])c1ccc2nc(Sc3nc4ccccc4[nH]3)sc2c1 [CBK263356],100%
8,CC(C)(C)OC(=O)N1CCN(c2ccc(Cl)nn2)CC1 [CBK113381],92.8939%
9,Cn1ccnc1C1(O)CCN(C(=O)CC2CCCCC2)CC1 [CBK283647],116.105%
10,COCCNc1nccnc1-c1ccccc1F [CBK038044],133.343%
11,OB(O)c1ccc(Oc2ccc(B(O)O)cc2)cc1 [CBK261159],86.9854%
12,CN(CCN1CCCCC1)C(=O)c1ccccc1Cn1cccn1 [CBK281904],102.635%
13,COCCCNC(=O)C1CCCN(c2nc3c(-c4ccccc4)csc3c(=O)[nH]2)C1 (stereo not shown) [CBK215498],141.119%
14,O=S(=O)(Nc1cccc2ncccc12)c1ccc(OC(F)(F)F)cc1 [CBK044490],96.2443%
15,Cc1ccc(C2=CCN(CC(N)=O)CC2)o1 [CBK283570],96.2256%
16,Cc1ccc(S(=O)(=O)N2CCN(C(=O)C3C4C=CC(C4)C3C(=O)O)CC2)cc1 (stereo not shown) [CBK286944],113.901%
17,CN(CC(=O)Nc1ccc(N(C)C)cc1)Cc1ccc(F)cc1 [CBK295188],150.122%
18,COc1cc(CNc2nccnc2-c2cccc(CO)c2)cc(OC)c1 [CBK037403],123.111%
19,CCc1ccc(CNC(=O)Cn2cc(-c3ccc(CN4CCC(CO)CC4)cc3)nn2)cc1 [CBK167551],123.46%
20,O=C(c1ccc(F)cc1)C1CCN(C/C=C/c2ccccc2)CC1 [CBK149124],100%
21,O=C(CN(c1ccc(Cl)cc1)S(=O)(=O)c1ccccc1)Nc1ccc(F)cc1 [CBK264013],100%
22,CCN(CC)C(=O)Cn1c(=O)n(Cc2ccco2)c2ncccc21 [CBK284016],98.4451%
23,CCOC(=O)c1csc(C2CCCN2C(=O)CC2C=CCCC2)n1 (stereo not shown) [CBK305407],135.977%
24,Cc1cccc(NC2=NC(=O)/C(=C\c3ccc(Cl)cc3)S2)c1C [CBK263619],79.0686%
25,Cc1ccccc1OC(C)C(=O)NCCCc1ccccc1 (stereo not shown) [CBK268571],149.56%

row,SMILES,% of control remaining
1,COc1cc(/C=N/NC(=O)c2ccccn2)ccc1OC(=O)c1cccc2ccccc12 [CBK262110],116.849%
2,CC1CCCC(C)N1S(=O)(=O)c1ccc(NC(=O)CCn2cnc3ccccc3c2=O)cc1 (stereo not shown) [CBK267643],141.373%
3,Cc1ccc(C)c(Oc2coc3cc(OCC(=O)Nc4ccccc4C(C)C)ccc3c2=O)c1 [CBK265906],182.614%
4,CNC(=O)c1sc2ccccc2c1C1CCN(Cc2nc3ccccc3n2C(C)C)C1 (stereo not shown) [CBK285929],73.2905%
5,CC(=O)Nc1ccc(CN(CCO)C2CCc3ccccc32)cc1 (stereo not shown) [CBK304104],156.537%
6,Cc1ccc2oc(-c3cccc(NC(=O)c4ccc(-c5ccc([N+](=O)[O-])cc5)o4)c3C)nc2c1 [CBK263437],127.913%
7,CC1CCCCN1Cc1nc2c(c(=O)n(C)c(=O)n2C)n1CCCc1ccccc1 (stereo not shown) [CBK269326],136.05%
8,Cc1cc(C(=O)Nc2ccc(-c3nc4ccccc4s3)c(O)c2)ccc1[N+](=O)[O-] [CBK262820],90.7151%
9,CC(C)(c1ccc(Oc2ccc3c(c2)C(=O)N(c2nccs2)C3=O)cc1)c1ccc(Oc2ccc3c(c2)C(=O)N(c2nccs2)C3=O)cc1 [CBK262258],100%
10,S=c1cc(SCc2ccccc2Cl)nc[nH]1 [CBK288496],118.455%
11,Cc1c(NC(=O)CN(c2ccccc2)S(=O)(=O)N(C)C)cccc1[N+](=O)[O-] [CBK269012],117.844%
12,O=C(O)c1sc2c(ccc3ccccc32)c1Br [CBK018387],106.507%
13,COCC(C)NC(=O)c1cc(-c2cccs2)nc2onc(C)c12 (stereo not shown) [CBK306473],102.399%
14,COc1cccc(CC(=O)N2CCOc3ncccc32)c1 [CBK305235],109.332%
15,O=C(O)CC(=Cc1csc(-c2ccc(Cl)cc2)n1)c1nc2ccccc2o1 [CBK297112],142.522%
16,Cc1ccccc1-c1cc(=O)[nH]c(Nc2ccccc2)n1 [CBK288142],69.8705%
17,O=C(NC1CCN(CC(F)(F)F)CC1)c1cnc(-c2ccccc2)s1 [CBK305474],108.269%
18,O=C(CN1CCC(c2ccncc2)CC1)N1CCCCC1 [CBK283504],94.7464%
19,COc1ccc(-n2nc(N)c3c(=O)oc(N(C)C)nc32)cc1 [CBK007445],132.441%
20,CN(C)CCNC(=O)c1ccc(-c2cnc3[nH]c(=O)n(CC4CC4)c3n2)cc1 [CBK064578],128.555%
21,Cc1cccc(-c2ncc(C(=O)NCCc3c[nH]cn3)cc2-c2ccncc2)c1 [CBK036678],220.236%
22,CC1CCCN(Cc2c(C3CCNCC3)[nH]c3ncccc23)C1 (stereo not shown) [CBK285078],145.158%
23,Cn1cc(C(=O)N2CCc3ccccc3C2)c2ccccc21 [CBK200338],112.81%
24,O=C(C1=C(O)C(=O)N(Cc2cccnc2)C1c1cccc([N+](=O)[O-])c1)c1ccccc1 (stereo not shown) [CBK263383],107.565%

# Ordered by SMILES length (smallest number first): part of the list above.
row,SMILES,% of control remaining
15,Cc1ccc(C2=CCN(CC(N)=O)CC2)o1 [CBK283570],96.2256%
18,O=C(CN1CCC(c2ccncc2)CC1)N1CCCCC1 [CBK283504],94.7464%
23,Cn1cc(C(=O)N2CCc3ccccc3C2)c2ccccc21 [CBK200338],112.81%
16,Cc1ccccc1-c1cc(=O)[nH]c(Nc2ccccc2)n1 [CBK288142],69.8705%
22,CC1CCCN(Cc2c(C3CCNCC3)[nH]c3ncccc23)C1 (stereo not shown) [CBK285078],145.158%
20,O=C(c1ccc(F)cc1)C1CCN(C/C=C/c2ccccc2)CC1 [CBK149124],100%
17,O=C(NC1CCN(CC(F)(F)F)CC1)c1cnc(-c2ccccc2)s1 [CBK305474],108.269%
15,O=C(O)CC(=Cc1csc(-c2ccc(Cl)cc2)n1)c1nc2ccccc2o1 [CBK297112],142.522%
6,O=C(O)CCCC(=O)N1CCN(C(=O)c2sc3cc(Cl)ccc3c2Cl)CC1 [CBK286973],113.643%
1,COc1cc(/C=N/NC(=O)c2ccccn2)ccc1OC(=O)c1cccc2ccccc12 [CBK262110],116.849%
19,CCc1ccc(CNC(=O)Cn2cc(-c3ccc(CN4CCC(CO)CC4)cc3)nn2)cc1 [CBK167551],123.46%
3,Cc1ccc(C)c(Oc2coc3cc(OCC(=O)Nc4ccccc4C(C)C)ccc3c2=O)c1 [CBK265906],182.614%
11,Cc1c(NC(=O)CN(c2ccccc2)S(=O)(=O)N(C)C)cccc1[N+](=O)[O-] [CBK269012],117.844%
6,Cc1ccc2oc(-c3cccc(NC(=O)c4ccc(-c5ccc([N+](=O)[O-])cc5)o4)c3C)nc2c1 [CBK263437],127.913%
9,CC(C)(c1ccc(Oc2ccc3c(c2)C(=O)N(c2nccs2)C3=O)cc1)c1ccc(Oc2ccc3c(c2)C(=O)N(c2nccs2)C3=O)cc1 [CBK262258],100%

# — PMC12040169 (PLOS Biology, 2025)
